According to PubChem BioAssay AID1671190 (National Center for Advancing Translational Sciences (NCATS), 2021):
In all, about 580,000 compounds went through this assay and about 6,100 (1.1%) were called active. This list was built around the results that the source calls inconclusive (neither active nor inactive); the mix of calls is not that of the screen. The call rests on the fitted dose curve; in most records, active means well fitted inhibition curve with a large enough effect; inconclusive means small, poorly fitted or top-dose-only effect, or another doubt; inactive means no such curve, though single readings can be large or run the other way. A potency beside an inconclusive call is a rough fit, not a confirmed value.

Amino acid sequences for entries named in this document (tags omitted). A change or cut given only in a name is not applied to a line headed by its entry.
UniProt P18054: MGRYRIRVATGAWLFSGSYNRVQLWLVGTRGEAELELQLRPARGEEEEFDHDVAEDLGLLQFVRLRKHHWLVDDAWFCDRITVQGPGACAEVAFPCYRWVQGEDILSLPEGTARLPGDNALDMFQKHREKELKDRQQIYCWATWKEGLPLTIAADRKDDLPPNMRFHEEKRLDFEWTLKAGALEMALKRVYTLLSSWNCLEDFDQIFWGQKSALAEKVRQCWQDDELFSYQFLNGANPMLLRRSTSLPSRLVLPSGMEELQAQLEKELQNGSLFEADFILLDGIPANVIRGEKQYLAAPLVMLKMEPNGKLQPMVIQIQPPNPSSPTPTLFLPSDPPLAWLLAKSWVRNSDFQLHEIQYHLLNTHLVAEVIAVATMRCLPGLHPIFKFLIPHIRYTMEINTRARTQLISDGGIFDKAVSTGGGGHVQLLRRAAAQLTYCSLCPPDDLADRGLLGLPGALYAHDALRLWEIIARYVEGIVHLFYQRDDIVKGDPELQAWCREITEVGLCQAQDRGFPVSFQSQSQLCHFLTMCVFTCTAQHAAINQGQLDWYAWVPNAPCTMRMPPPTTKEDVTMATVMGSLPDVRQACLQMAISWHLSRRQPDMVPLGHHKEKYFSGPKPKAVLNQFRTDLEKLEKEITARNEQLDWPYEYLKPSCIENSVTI

Target: Polyunsaturated fatty acid lipoxygenase ALOX12 (Homo sapiens) (UniProt P18054)
Test: Primary qHTS assay for inhibitors of human arachidonate 12S-lipoxygenase (ALOX12): Round 2
Details: purified 12hLO, xylenol orange hydroperoxide absorbance; series mostly up to 108 µM
Summary of the method: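 Purified human 12hLO (150 nM final) in 25 mM Hepes, 0.01% Triton X-100, pH 7.0 was preincubated 15 min at room temperature with compound. Then 40 uM arachidonic acid was added, 30 min. Hydroperoxide was read by Fe-XO absorbance ratio 573/405 nm.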
Potency means the concentration at half of the fitted maximal effect.

Row | Compound | Potency
1 | Cc1ccsc1/C=C(\C#N)c1nc(-c2ccc3ccccc3c2)cs1 | inactive
2 | Cc1cccc(CNC(=O)c2ccc3c(c2)N(C)C(=O)C2CCCCN32)c1 (stereo not given) | inconclusive: 126 µM [inhibitor, single point]
3 | CCOc1ccc(NS(=O)(=O)c2ccc3[nH]cc(C(=O)NCc4ccccc4)c(=O)c3c2)cc1 | inconclusive: 39.8 µM [inhibitor, partial curve]
4 | O=C(O)c1sccc1NC(=O)c1c(Cl)cccc1Cl | inconclusive: 35.5 µM [inhibitor, single point]
5 | CC(=O)c1cccc(NC(=O)c2ccc(C)o2)c1 | inactive
6 | O=C(O)c1cc(NCc2cc(O)ccc2O)ccc1O | inconclusive: 31.6 µM [inhibitor, partial curve, poor fit]
7 | CN(CCc1ccccn1)[C@@H]1[C@H](O)[C@H](CO)O[C@@H]1CN(Cc1ccc(F)cc1)Cc1ccc(F)cc1 | inconclusive: 3.16 µM [inhibitor, full curve]
8 | N#C/C(=C\c1cccs1)C(=O)NCc1cccnc1 | inactive
9 | CCNC(=O)c1cc2c(c(-c3cccc(-c4ccccc4F)c3)n1)[C@@H](CCO)N(C(=O)CC)C2 | inconclusive: 79.4 µM [inhibitor, partial curve, poor fit]
10 | COc1ccccc1-c1cc(NCc2ccccc2)ncn1 | inconclusive: 8.91 µM [inhibitor, partial curve, poor fit]
11 | CNS(=O)(=O)c1ccc2c3c(cccc13)C(=O)N2 | inactive
12 | CC(CC(=O)O)Nc1ccccc1O (stereo not given) | inconclusive: 50.1 µM [inhibitor, partial curve, poor fit]
13 | CC(CN1CCOCC1)OC(=O)c1ccc2c(c1)OCCO2 (stereo not given) | inconclusive: 35.5 µM [inhibitor, single point]
14 | CCN1CCN(c2cc(C)c3cc(NC(=O)c4cncc(Br)c4)ccc3n2)CC1 | inactive
15 | CSc1ccc(CNC(=O)c2cc3cc(S(=O)(=O)N4CCCCC4)ccc3n2C)cc1 | inconclusive: 100 µM [inhibitor, partial curve, poor fit]
16 | COc1ccc(C(C)=O)cc1CN1C(=O)C(C)N(c2ccc(C)cc2)C1=O (stereo not given) | inconclusive: 126 µM [inhibitor, partial curve, poor fit]
17 | COc1ccc(CNC(=O)c2csc(NC(C)C)n2)cc1 | inactive
18 | C=CCn1c(/N=C/c2ccc(N(C)C)cc2)nc2ccccc21 | inactive
19 | N#Cc1ccc(C(=O)N2CC=C(c3c[nH]c4ccccc34)CC2)cc1 | inconclusive: 39.8 µM [inhibitor, partial curve, poor fit]
20 | Cc1ccc(S(=O)(=O)N2CCCC2C(=O)Oc2ccccc2)cc1 (stereo not given) | inconclusive: 112 µM [inhibitor, partial curve, poor fit]
21 | Cc1ccc(C)c(-c2csc(NC(=O)c3c(C)noc3C)n2)c1 | inactive
22 | CC(C)n1c(C(=O)OCC(=O)NCc2ccc3c(c2)OCO3)cc2occc21 | inconclusive: 35.5 µM [inhibitor, single point]

Row | Compound | Potency
23 | O=C(c1ccc(Cl)cc1)N1CCN(CCOc2ccccc2)CC1 | inactive
24 | CCCN(Cc1ccc(OC)cc1)Cc1cc(=O)oc2ccc(C)cc12 | inconclusive: 44.7 µM [inhibitor, partial curve, poor fit]
25 | CC1(C)Cc2nc3scc(NC(=O)c4ccccc4)c3cc2CO1 | inconclusive: 89.1 µM [inhibitor, partial curve, poor fit]
26 | O=C(CCc1ncc(-c2ccc(Cl)cc2)o1)NC12CC3CC(CC(C3)C1)C2 | inconclusive: 44.7 µM [inhibitor, partial curve, poor fit]
27 | CC1CCN(S(=O)(=O)c2ccc3nc(Nc4ccc(C#N)cc4)ccc3c2)CC1 | inconclusive: 31.6 µM [inhibitor, partial curve, poor fit]
28 | CCc1ccc(NC2=NCC(=O)N2Cc2ccc3c(c2)OCO3)cc1 | inconclusive: 14.1 µM [inhibitor, partial curve, poor fit]
29 | COc1ccc(-c2nn(-c3ccccc3)cc2C(=O)N(C)CC(=O)Nc2ccccc2Br)cc1 | inactive
30 | COc1cc(/C=N/Nc2ccccc2)ccc1O | inconclusive: 35.5 µM [inhibitor, single point]
31 | COc1ccc(C)cc1S(=O)(=O)N(C)CC(=O)NC1CCCC1 | inactive
32 | COc1ccc(-c2[nH]nc3ncc(-c4ccc(CO)cc4)nc23)cc1F | inconclusive: 112 µM [inhibitor, single point]
33 | COc1ccc(C(=O)c2c(N)c(C#N)c3n2CCC3)cc1 | inactive
34 | Cc1cc(C)c(NC(=O)/C(=C/c2ccco2)c2ccccc2)c(C)c1 | inconclusive: 56.2 µM [inhibitor, partial curve, poor fit]
35 | CCOc1ccc(-c2cc(N3C(=O)Nc4ccccc4N3O)on2)cc1 | inconclusive: 141 µM [inhibitor, single point]
36 | COc1cccc(C(=O)Nc2ccc3oc(-c4ccccc4)cc(=O)c3c2)c1 | inactive
37 | Cn1cnc2c(oc3nc(C4CCCCC4)c4c(c32)CCC4)c1=O | inactive
38 | CN1CCN(CCCOc2ccc(-c3ccccc3)cc2)CC1 | inconclusive: 112 µM [inhibitor, single point]
39 | O=C1C(SC(F)(F)C(F)F)=C(C(F)(F)F)OC2C3C=CC(C3)C12 (stereo not given) | inconclusive: 31.6 µM [inhibitor, single point]
40 | CCOc1ccc2nc(COc3ccc(C)cc3)[nH]c2c1 | inconclusive: 70.8 µM [inhibitor, partial curve, poor fit]
41 | COc1ccc(-n2nc3c(N4CCC(C(=O)N5CCCCCC5)CC4)nnc(C)c3c2C)cc1 | inactive
42 | NC(N)=NCCCC(NC(=O)c1ccccc1)C(=O)Nc1ccc([N+](=O)[O-])cc1 (stereo not given) | inconclusive: 39.8 µM [inhibitor, partial curve]
43 | COC(=O)C1=C(C)N(Cc2ccccc2)C(=S)NC1c1cccc(OC)c1 (stereo not given) | active: 31.6 µM
44 | CC(Oc1ccc(Cl)cc1Cl)C(=O)Nc1cccc(O)c1 (stereo not given) | inconclusive: 100 µM [inhibitor, partial curve, poor fit]

Row | Compound | Potency
45 | COc1ccc(-c2cc(CC3(NCc4ccc(C)o4)COC3)no2)cc1 | inconclusive: 25.1 µM [inhibitor, full curve, poor fit]
46 | CC(C)c1nc2c(c(=O)c3ccccc3n2C)c(=O)n1CCc1ccccc1 | inconclusive: 44.7 µM [inhibitor, partial curve]
47 | Cc1ccc(CN2CCCC3(Cc4ccccc4CNC3=O)C2)cc1 (stereo not given) | inconclusive: 56.2 µM [inhibitor, partial curve]
48 | COc1ccc(CCNc2ncnc3c2c(C)c(C)n3CCO)cc1OC | inconclusive: 2.24 µM [inhibitor, full curve, poor fit]
49 | CN(C)c1ccc(C(=O)N2CCN3C(=O)N(CC(N)=O)C(=O)[C@@H]3C2)cc1 | inactive
50 | CCn1nccc1C(=O)N1CCC2(CC1)N(C)C(=O)CS2(=O)=O | inconclusive: 8.91 µM [inhibitor, full curve]
51 | Cc1ccc(-c2nn(-c3ccccc3)cc2C2CC(c3cccs3)=NN2C(=O)CCCC(=O)O)cc1 (stereo not given) | inconclusive: 141 µM [inhibitor, partial curve, poor fit]
52 | O=C(Nc1ccccc1F)c1ccc(-c2ccccc2)s1 | inconclusive: 39.8 µM [inhibitor, partial curve, poor fit]
53 | COc1ccc(CNC(=O)Nc2ccc(Cl)cc2C)cn1 | inconclusive: 141 µM [inhibitor, single point]
54 | C/C(Cl)=C\C[N+](C)(C)CC(=O)OCCc1ccccc1 | inconclusive: 100 µM [inhibitor, partial curve, poor fit]
55 | O=C(NNc1ccccc1)C(=O)NNc1ccccc1 | inconclusive: 2.51 µM [inhibitor, full curve, poor fit]
56 | COc1ccc(CNc2cc(-c3ccoc3)ncn2)c(OC)c1 | inconclusive: 141 µM [inhibitor, partial curve, poor fit]
57 | CC(=O)c1ccc(-c2ccccc2OC(F)(F)F)o1 | inconclusive: 89.1 µM [inhibitor, partial curve, poor fit]
58 | COc1cc(F)ccc1-c1csc(C(O)c2ccc(F)cc2)n1 (stereo not given) | inconclusive: 5.62 µM [inhibitor, full curve, poor fit]
59 | Cc1ccc2oc(C(=O)Nc3ccc(S(=O)(=O)Nc4cc(C)nc(C)n4)cc3)cc(=O)c2c1 | inconclusive: 5.62 µM [inhibitor, full curve, poor fit]
60 | COC(=O)c1ccc(C(=O)NCC2(c3ccccc3)CC2)cc1 | inconclusive: 39.8 µM [inhibitor, partial curve, poor fit]
61 | O=c1[nH]c(=S)n2c(c1-c1ccccc1)OC(CBr)C2 (stereo not given) | inconclusive: 70.8 µM [inhibitor, partial curve, poor fit]
62 | Cc1ccc(Nc2cc(C)c3ccc(O)cc3n2)cc1C | inconclusive: 50.1 µM [inhibitor, partial curve, poor fit]
63 | CCOC(=O)c1nnn(CC(=O)NC(=O)Nc2cccc(CC)c2)c1C(=O)OCC | inconclusive: 158 µM [inhibitor, partial curve, poor fit]
64 | CCc1ccc(NC(=O)c2cccc(NC3=NC4CS(=O)(=O)CC4S3)c2)cc1 (stereo not given) | inconclusive: 35.5 µM [inhibitor, single point]
65 | O=C1Nc2ccccc2N=C(c2ccc3c(c2)OCO3)C1N(C(=O)c1ccnc2ccccc12)c1ccccc1 (stereo not given) | inconclusive: 112 µM [inhibitor, single point]

Ordered by molecular weight (high to low): part of the list above.
Row | Compound | Potency
65 | O=C1Nc2ccccc2N=C(c2ccc3c(c2)OCO3)C1N(C(=O)c1ccnc2ccccc12)c1ccccc1 (stereo not given) | inconclusive: 112 µM [inhibitor, single point]
59 | Cc1ccc2oc(C(=O)Nc3ccc(S(=O)(=O)Nc4cc(C)nc(C)n4)cc3)cc(=O)c2c1 | inconclusive: 5.62 µM [inhibitor, full curve, poor fit]
55 | O=C(NNc1ccccc1)C(=O)NNc1ccccc1 | inconclusive: 2.51 µM [inhibitor, full curve, poor fit]
